According to US7270767B1, “Environmentally friendly de-icer and anti-icer compositions” (priority 1999, dated 2007):

Experiment: Plastic crazing test
Details: ASTM F 484, MIL-P-83310 polycarbonate; for Plastic crazing, Results: MIL-PRF-25690 acrylic

SMILES | Plastic crazing on polycarbonate | Plastic crazing, Results | Plastic crazing, Results (listed as Triethylene glycol (99% pure))
OCCOCCOCCO [Triethylene glycol] | acrylic; no | slight crazing of acrylic plastic | Crazed
OCC(O)CO [Glycerol] | – | No crazing | –
CC(O)CO (centres unmarked) [Propylene glycol, reference compound] | – | Slight | –
